Taken from: PubChem BioAssay AID1508597 (Cure First, 2020)

Aim: 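Knock-downs altering ovarian cancer cell survival with or without PARP inhibitor rucaparib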 (primary screen)
System: human ovarian carcinoma lines grown from tumours: OCI-P5x (papillary serous) and OCI-C5x (clear cell)
Knock-down reagent: siRNA pool against human genes, 1.25 pmol siRNA per well
Duration: 72 h or 96 h, depending on the cell culture
Treatment: rucaparib 20 µM (about IC30) or vehicle, present until read-out
Measured: 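ATP luminescence measured at 72 or 96 h according to the culture, then normalised and expressed as percent viability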
Direction: viability, normalised: higher = more viable cells remaining
Hit rule: 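a well counts as a hit if its normalised viability is under 80 percent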
Calls: active = viability under 80%; inactive = viability 80% or more
In all, the deposit lists about 2,100 reagents; shown is an unselected part. 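Calls flag viability under 80% in either arm, not effects specific to rucaparib; the reference for percent is not stated.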 The record does not give: the 100% reference.

| viability, normalised (%) | call | target gene | rucaparib or vehicle | cell line | technical replicate |
| --- | --- | --- | --- | --- | --- |
| 55.8 | active | XRCC4 | Rucaparib | OCI-C5x (clear cell) | 1 |
| 69.4 | active | XRCC4 | Rucaparib | OCI-C5x (clear cell) | 2 |
| 73.1 | active | XRCC4 | Rucaparib | OCI-C5x (clear cell) | 3 |
| 87.2 | inactive | XRCC4 | Rucaparib | OCI-P5x (serous) | 1 |
| 112 | inactive | XRCC4 | Rucaparib | OCI-P5x (serous) | 2 |
| 89.3 | inactive | XRCC4 | Rucaparib | OCI-P5x (serous) | 3 |
| 52.1 | active | XRCC4 | Vehicle | OCI-C5x (clear cell) | 1 |
| 68.4 | active | XRCC4 | Vehicle | OCI-C5x (clear cell) | 2 |
| 57.5 | active | XRCC4 | Vehicle | OCI-C5x (clear cell) | 3 |
| 83 | inactive | XRCC4 | Vehicle | OCI-P5x (serous) | 1 |
| 80.5 | inactive | XRCC4 | Vehicle | OCI-P5x (serous) | 2 |
| 75.4 | active | XRCC4 | Vehicle | OCI-P5x (serous) | 3 |

Entries listed above called active, once more:
| viability, normalised (%) | call | target gene | rucaparib or vehicle | cell line | technical replicate |
| --- | --- | --- | --- | --- | --- |
| 55.8 | active | XRCC4 | Rucaparib | OCI-C5x (clear cell) | 1 |
| 69.4 | active | XRCC4 | Rucaparib | OCI-C5x (clear cell) | 2 |
| 73.1 | active | XRCC4 | Rucaparib | OCI-C5x (clear cell) | 3 |
| 52.1 | active | XRCC4 | Vehicle | OCI-C5x (clear cell) | 1 |
| 68.4 | active | XRCC4 | Vehicle | OCI-C5x (clear cell) | 2 |
| 57.5 | active | XRCC4 | Vehicle | OCI-C5x (clear cell) | 3 |
| 75.4 | active | XRCC4 | Vehicle | OCI-P5x (serous) | 3 |

Further entries follow.
| viability, normalised (%) | call | target gene | rucaparib or vehicle | cell line | technical replicate |
| --- | --- | --- | --- | --- | --- |
| 26.3 | active | SETD6 | Rucaparib | OCI-C5x (clear cell) | 1 |
| 24.7 | active | SETD6 | Rucaparib | OCI-C5x (clear cell) | 2 |
| 28.9 | active | SETD6 | Rucaparib | OCI-C5x (clear cell) | 3 |
| 43.3 | active | SETD6 | Rucaparib | OCI-P5x (serous) | 1 |
| 55.9 | active | SETD6 | Rucaparib | OCI-P5x (serous) | 2 |
| 48.4 | active | SETD6 | Rucaparib | OCI-P5x (serous) | 3 |
| 24.2 | active | SETD6 | Vehicle | OCI-C5x (clear cell) | 1 |
| 29.3 | active | SETD6 | Vehicle | OCI-C5x (clear cell) | 2 |
| 30 | active | SETD6 | Vehicle | OCI-C5x (clear cell) | 3 |
| 48.6 | active | SETD6 | Vehicle | OCI-P5x (serous) | 1 |
| 69.1 | active | SETD6 | Vehicle | OCI-P5x (serous) | 2 |
| 63.4 | active | SETD6 | Vehicle | OCI-P5x (serous) | 3 |
